Test [1] concerns the target Met, the receptor for HGF (human (endogenous in PC3)) (UniProt P08581). The test can be described thus: co-IP.
Test [2] addresses GFP-IQSEC1 v2 (human) (UniProt Q6DN90). Kind of test: co-IP.

Chains of the proteins cited; added tags and fusions are not shown. Residues count along the entry.
UniProt P08581, residues 25-1390: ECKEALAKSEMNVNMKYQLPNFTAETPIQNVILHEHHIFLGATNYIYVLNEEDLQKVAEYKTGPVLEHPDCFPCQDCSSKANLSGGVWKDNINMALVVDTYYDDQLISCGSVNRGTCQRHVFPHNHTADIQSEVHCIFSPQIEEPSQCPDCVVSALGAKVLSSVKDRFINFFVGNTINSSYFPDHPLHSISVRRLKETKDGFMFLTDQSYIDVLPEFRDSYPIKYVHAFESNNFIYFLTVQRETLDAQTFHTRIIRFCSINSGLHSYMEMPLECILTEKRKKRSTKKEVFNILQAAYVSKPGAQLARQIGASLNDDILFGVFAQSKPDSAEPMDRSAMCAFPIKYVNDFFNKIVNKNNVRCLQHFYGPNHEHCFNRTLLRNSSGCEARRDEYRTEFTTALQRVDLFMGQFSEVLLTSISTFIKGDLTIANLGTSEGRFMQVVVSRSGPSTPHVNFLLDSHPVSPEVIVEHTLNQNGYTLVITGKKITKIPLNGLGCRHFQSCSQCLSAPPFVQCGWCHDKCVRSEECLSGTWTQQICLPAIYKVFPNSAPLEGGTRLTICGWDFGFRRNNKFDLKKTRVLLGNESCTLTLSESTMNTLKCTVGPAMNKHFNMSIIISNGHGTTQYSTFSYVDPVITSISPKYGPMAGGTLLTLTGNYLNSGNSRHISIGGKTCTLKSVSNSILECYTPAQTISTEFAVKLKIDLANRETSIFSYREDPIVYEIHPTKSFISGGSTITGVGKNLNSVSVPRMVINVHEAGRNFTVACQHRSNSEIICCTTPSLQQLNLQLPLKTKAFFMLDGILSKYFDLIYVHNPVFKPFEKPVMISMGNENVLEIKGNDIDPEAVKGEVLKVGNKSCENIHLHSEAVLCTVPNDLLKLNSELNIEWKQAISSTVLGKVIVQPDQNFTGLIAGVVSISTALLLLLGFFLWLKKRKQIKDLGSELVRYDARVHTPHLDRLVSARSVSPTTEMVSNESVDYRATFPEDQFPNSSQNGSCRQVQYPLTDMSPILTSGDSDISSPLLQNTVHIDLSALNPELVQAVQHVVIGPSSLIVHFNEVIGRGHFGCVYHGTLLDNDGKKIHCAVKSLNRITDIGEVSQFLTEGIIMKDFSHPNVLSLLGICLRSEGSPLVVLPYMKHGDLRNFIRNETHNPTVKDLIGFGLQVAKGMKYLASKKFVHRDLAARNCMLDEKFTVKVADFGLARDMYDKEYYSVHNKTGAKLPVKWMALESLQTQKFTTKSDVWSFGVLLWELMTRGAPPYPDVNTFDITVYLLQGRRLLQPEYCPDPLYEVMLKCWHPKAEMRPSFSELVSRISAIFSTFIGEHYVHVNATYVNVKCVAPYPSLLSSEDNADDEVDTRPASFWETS
UniProt Q6DN90: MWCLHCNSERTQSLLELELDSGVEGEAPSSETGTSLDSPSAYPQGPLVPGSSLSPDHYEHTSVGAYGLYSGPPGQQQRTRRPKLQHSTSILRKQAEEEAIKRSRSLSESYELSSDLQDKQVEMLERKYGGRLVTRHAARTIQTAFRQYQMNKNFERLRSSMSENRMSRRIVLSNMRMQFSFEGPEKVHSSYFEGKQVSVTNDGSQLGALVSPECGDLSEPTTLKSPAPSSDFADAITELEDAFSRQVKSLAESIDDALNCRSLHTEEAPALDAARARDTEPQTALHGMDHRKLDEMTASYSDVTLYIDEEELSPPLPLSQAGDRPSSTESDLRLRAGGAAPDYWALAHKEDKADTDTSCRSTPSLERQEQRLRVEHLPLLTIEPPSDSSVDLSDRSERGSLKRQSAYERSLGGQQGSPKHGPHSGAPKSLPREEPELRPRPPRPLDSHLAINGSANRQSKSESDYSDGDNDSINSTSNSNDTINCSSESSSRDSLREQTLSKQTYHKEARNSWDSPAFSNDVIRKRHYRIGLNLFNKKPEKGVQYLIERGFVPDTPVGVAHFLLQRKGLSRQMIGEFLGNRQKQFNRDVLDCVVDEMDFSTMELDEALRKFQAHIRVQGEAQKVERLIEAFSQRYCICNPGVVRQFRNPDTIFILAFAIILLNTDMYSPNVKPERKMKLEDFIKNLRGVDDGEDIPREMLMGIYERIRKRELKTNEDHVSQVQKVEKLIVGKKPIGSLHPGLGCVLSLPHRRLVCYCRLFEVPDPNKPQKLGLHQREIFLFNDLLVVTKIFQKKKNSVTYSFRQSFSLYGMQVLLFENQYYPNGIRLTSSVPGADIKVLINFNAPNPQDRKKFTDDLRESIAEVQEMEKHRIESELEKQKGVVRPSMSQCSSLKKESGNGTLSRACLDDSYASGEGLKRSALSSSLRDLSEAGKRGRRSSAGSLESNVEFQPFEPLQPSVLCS
UniProt Q92673, residues 82-2214: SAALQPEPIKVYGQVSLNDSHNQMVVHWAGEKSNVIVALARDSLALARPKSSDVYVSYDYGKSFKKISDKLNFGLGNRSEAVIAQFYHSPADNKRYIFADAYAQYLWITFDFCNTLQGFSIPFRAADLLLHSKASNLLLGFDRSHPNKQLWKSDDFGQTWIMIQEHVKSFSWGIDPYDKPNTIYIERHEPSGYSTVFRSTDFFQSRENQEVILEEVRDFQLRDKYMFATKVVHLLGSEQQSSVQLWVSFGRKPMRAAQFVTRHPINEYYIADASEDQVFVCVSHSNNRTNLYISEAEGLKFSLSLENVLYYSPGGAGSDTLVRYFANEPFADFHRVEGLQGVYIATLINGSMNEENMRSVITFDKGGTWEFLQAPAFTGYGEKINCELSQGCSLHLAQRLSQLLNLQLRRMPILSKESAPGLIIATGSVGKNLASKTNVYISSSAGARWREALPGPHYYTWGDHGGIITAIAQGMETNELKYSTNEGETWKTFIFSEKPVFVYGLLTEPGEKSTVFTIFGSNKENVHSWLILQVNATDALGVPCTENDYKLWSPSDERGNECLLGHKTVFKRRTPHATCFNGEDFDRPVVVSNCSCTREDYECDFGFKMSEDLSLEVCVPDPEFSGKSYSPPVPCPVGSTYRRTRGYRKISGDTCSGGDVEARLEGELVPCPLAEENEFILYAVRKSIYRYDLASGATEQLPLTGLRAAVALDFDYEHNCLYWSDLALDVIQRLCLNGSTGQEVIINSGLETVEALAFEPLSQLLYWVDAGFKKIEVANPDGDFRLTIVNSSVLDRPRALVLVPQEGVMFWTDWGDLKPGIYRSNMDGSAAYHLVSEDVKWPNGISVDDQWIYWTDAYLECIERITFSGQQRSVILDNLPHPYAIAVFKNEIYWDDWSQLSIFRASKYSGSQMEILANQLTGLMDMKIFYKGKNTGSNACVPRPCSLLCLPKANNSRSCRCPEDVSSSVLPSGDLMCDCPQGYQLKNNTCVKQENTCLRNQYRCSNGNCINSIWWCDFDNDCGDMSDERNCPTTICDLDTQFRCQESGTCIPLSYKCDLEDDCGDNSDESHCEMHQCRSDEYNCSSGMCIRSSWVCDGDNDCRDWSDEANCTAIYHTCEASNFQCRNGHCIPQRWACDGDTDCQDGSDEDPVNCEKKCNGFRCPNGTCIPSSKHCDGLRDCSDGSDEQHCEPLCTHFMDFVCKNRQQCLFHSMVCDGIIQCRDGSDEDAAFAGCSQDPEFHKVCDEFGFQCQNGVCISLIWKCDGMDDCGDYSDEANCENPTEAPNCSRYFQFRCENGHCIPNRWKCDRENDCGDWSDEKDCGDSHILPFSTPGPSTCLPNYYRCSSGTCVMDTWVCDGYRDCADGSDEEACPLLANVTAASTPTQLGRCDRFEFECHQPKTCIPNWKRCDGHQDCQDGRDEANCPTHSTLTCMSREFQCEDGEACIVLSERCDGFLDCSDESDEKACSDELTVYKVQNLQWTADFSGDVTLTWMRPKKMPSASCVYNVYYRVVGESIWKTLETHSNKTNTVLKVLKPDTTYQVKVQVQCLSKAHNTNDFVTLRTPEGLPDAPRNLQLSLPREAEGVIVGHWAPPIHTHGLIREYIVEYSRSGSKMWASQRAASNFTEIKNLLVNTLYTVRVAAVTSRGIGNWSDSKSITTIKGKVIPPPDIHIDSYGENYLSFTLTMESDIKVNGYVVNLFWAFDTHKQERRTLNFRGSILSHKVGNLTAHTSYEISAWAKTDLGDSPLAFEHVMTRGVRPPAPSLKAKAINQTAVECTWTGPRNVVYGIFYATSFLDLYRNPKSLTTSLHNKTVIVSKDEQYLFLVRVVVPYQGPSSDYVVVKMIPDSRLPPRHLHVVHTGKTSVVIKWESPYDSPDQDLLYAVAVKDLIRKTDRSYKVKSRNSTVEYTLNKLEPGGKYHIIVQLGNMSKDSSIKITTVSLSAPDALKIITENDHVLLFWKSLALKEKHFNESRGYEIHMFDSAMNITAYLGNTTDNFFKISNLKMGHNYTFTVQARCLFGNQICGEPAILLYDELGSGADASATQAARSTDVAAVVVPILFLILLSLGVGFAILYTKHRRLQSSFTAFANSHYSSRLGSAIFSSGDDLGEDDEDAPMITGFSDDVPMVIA

No constants are given. Whether binding was seen depends on the method and setting. In cells and extracts the contact can be indirect. Some binding calls cover weakened binding; strength is not graded here.

Binding data for three substances are collected here from publication doi:10.1101/851410.

Turning to “LRP1 (Low density lipoprotein receptor-Related Protein 1) (from UniProt Q07954 20-4544)”, the binding result in test [1] and in test [2] was “binds” in each case.

Consider “Met, the receptor for HGF (from UniProt P08581 25-1390)”, for which the binding result in test [2] is “binds”.

For the substance “SORL1 (Sortilin-Related Receptor 1) (from UniProt Q92673 82-2214)”, the binding entry in test [2] is “binds”.
